Test results from patent publication US20090304663A1, “USE OF GSK-3 INHIBITORS FOR THE TREATMENT OF PROSTATE CANCER” (IMPERIAL INNOVATIONS LIMITED, priority 2004, published 2009).
No constants are given. Whether binding was seen depends on the method and setting. In cells and extracts the contact can be indirect. Some binding calls cover weakened binding; strength is not graded here.

Protein sequences, listed by entry. Tags and fused reporters are not part of them.
UniProt P49841: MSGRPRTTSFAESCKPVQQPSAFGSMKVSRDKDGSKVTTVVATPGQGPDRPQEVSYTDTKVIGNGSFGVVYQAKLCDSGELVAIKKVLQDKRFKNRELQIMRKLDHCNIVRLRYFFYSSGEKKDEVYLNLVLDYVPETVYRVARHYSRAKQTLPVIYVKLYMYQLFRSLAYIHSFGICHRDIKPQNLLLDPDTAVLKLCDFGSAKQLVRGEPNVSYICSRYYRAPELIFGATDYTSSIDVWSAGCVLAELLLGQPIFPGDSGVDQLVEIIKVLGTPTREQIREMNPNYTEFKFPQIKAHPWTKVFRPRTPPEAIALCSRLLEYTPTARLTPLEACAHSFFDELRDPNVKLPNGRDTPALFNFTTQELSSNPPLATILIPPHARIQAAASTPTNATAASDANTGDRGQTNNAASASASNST
UniProt P10275: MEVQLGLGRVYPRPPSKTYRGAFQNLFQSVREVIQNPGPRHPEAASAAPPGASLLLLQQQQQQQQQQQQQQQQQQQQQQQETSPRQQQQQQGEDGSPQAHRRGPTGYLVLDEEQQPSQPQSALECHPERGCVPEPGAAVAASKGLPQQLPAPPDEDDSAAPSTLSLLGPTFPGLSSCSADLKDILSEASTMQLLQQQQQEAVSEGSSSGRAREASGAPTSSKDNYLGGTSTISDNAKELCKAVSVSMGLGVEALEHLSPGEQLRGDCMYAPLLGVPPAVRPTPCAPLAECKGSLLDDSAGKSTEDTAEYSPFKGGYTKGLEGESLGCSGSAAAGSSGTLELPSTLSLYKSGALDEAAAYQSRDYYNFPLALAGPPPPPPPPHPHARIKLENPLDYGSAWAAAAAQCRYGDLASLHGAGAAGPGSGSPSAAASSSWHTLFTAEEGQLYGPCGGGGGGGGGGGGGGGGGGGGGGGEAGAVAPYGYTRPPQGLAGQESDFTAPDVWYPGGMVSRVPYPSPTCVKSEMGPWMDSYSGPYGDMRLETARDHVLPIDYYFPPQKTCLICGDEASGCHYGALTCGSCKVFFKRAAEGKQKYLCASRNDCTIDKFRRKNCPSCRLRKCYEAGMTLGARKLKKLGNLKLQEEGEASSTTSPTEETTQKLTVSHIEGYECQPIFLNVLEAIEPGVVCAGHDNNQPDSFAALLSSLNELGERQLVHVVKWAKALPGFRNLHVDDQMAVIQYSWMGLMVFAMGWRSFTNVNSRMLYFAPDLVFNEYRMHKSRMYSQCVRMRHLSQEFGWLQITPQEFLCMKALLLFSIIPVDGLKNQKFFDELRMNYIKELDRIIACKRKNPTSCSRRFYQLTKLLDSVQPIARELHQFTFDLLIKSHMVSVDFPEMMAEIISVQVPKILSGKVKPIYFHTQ

Assays:
myc epitope-tagged GSK-3 [1] = molecular target: myc epitope-tagged GSK-3 (UniProt P49841); assay: co-immunoprecipitation from transfected COS7 cell extracts
myc epitope-tagged GSK-3 [2] = molecular target: myc epitope-tagged GSK-3 (UniProt P49841); assay: co-immunoprecipitation with 9E10 (myc-GSK-3) from transfected COS7 cell extracts, blot with anti-AR
androgen receptor (AR) = androgen receptor (AR) (UniProt P10275); assay: co-immunoprecipitation with polyclonal anti-AR from transfected COS7 cell extracts, blot with 9E10

binding (myc epitope-tagged GSK-3 [1]) | binding (myc epitope-tagged GSK-3 [2]) | binding (androgen receptor (AR)) | Substance
binds | binds | – | androgen receptor (AR) (from UniProt P10275 1-920)
– | – | binds | myc epitope-tagged GSK-3 (from UniProt P49841 1-420) (enzyme)
